In paper PMC9485235, “Structural insights into cyanobacterial RuBisCO assembly coordinated by two chaperones Raf1 and RbcX” (Cell Discovery, 2022):

Target: RbcX from Anabaena sp. PCC 7120, co-expressed in the ternary complex (Anabaena sp. PCC 7120)
Experiment: cryo-EM structure; RbcL–Raf1–RbcX ternary complex co-expressed in E. coli with GroEL-GroES, purified by Ni-NTA and gel filtration in 50 mM Tris-HCl pH 8.0, 20 mM NaCl, 5 mM MgCl2; ~2 mg/mL; D4 symmetry; 3.3 Å; both purified

binding: binds
B1: RuBisCO accumulation factor 1 (Raf1) from Anabaena sp. PCC 7120 (protein, UniProt Q8YLP6 1-361)
chain: MTELPPNAPNPENATNELAQELLRKLRQKQGNWVEWGQAIASLQKSGYNPQDIFEATGFEPVQQNQVIVGSQVYNSLEKSGASAATLAHYATRGSDVLYELRLLTHEERAAAGDLTFTHKVDADEAREIAKAIKDFSRFRILPEGFSNHPGDAVAYQAWKLARQYSDLQERSRLIARGLRFAHSETARKQIEQLLVDFTVVSQRPAPIPPFFRFDTEDELPRIVPVVGQLPLKAEELKAVPLVEEIEPFRLVKFSGEQAWVALPGWQVLLAAEDPVTILATSDRFPKQNQTEPGPVLVVVDRSQREWNDFSYFVVDHDGELDFQWFETKPEFPILGKVIILVRPRRILDENVTKDSWQIDE

Results are given in words; binding and its absence hold for the method and conditions named. A result given as binding can be weak or reduced; the word gives no strength.
